{"source": "PubChem BioAssay AID1508597 | Cure First, 2020", "aim": "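Survival screen with siRNA in ovarian cancer cells derived from patients, with or without rucaparib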 (primary screen)", "system": "human ovarian carcinoma lines grown from tumours: OCI-P5x (papillary serous) and OCI-C5x (clear cell)", "knock-down reagent": "siRNA pool against human genes, 1.25 pmol siRNA per well", "time to read-out": "72 h or 96 h, depending on the cell culture", "treatment": "rucaparib 20 µM (about IC30) or vehicle, present until read-out", "rucaparib or vehicle": "Vehicle", "cell line": "OCI-P5x (serous)", "detection": "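ATP luminescence measured at 72 or 96 h according to the culture, then normalised and expressed as percent viability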", "reading the numbers": "viability, normalised: higher = more viable cells remaining", "rule for the call": "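Active when normalised viability falls below 80 percent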", "meaning of the calls": "active = viability under 80%; inactive = viability 80% or more", "note": "This is an unselected part of the about 2,100 reagents, in one setting of the screen. 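Calls flag viability under 80% in either arm, not effects specific to rucaparib; the reference for percent is not stated.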 A reagent listed more than once was tested more than once; the source does not tell the runs apart. The record does not give: the 100% reference."}
{"gene":"COQ8A","technical replicate":"1","viability, normalised (%)":88.6,"Call":"inactive"}
{"gene":"COQ8A","technical replicate":"2","viability, normalised (%)":104,"Call":"inactive"}
{"gene":"COQ8A","technical replicate":"3","viability, normalised (%)":71.8,"Call":"active"}
{"gene":"TEK","technical replicate":"1","viability, normalised (%)":80.9,"Call":"inactive"}
{"gene":"TEK","technical replicate":"2","viability, normalised (%)":81.5,"Call":"inactive"}
{"gene":"TEK","technical replicate":"3","viability, normalised (%)":61.5,"Call":"active"}
{"gene":"GADD45G","technical replicate":"1","viability, normalised (%)":77.9,"Call":"active"}
{"gene":"GADD45G","technical replicate":"2","viability, normalised (%)":84.4,"Call":"inactive"}
{"gene":"GADD45G","technical replicate":"3","viability, normalised (%)":79.4,"Call":"active"}

The list goes on; the last 3 above are carried over.
{"gene":"GADD45G","technical replicate":"1","viability, normalised (%)":77.9,"Call":"active"}
{"gene":"GADD45G","technical replicate":"2","viability, normalised (%)":84.4,"Call":"inactive"}
{"gene":"GADD45G","technical replicate":"3","viability, normalised (%)":79.4,"Call":"active"}
{"gene":"RAD18","technical replicate":"1","viability, normalised (%)":46.5,"Call":"active"}
{"gene":"RAD18","technical replicate":"1","viability, normalised (%)":48.8,"Call":"active"}
{"gene":"RAD18","technical replicate":"2","viability, normalised (%)":50.3,"Call":"active"}
{"gene":"RAD18","technical replicate":"2","viability, normalised (%)":45.4,"Call":"active"}
{"gene":"RAD18","technical replicate":"3","viability, normalised (%)":69.5,"Call":"active"}
{"gene":"RAD18","technical replicate":"3","viability, normalised (%)":43.7,"Call":"active"}
{"gene":"NTRK3","technical replicate":"1","viability, normalised (%)":110,"Call":"inactive"}
{"gene":"NTRK3","technical replicate":"2","viability, normalised (%)":94.9,"Call":"inactive"}
{"gene":"NTRK3","technical replicate":"3","viability, normalised (%)":97.9,"Call":"inactive"}
{"gene":"HMGN5","technical replicate":"1","viability, normalised (%)":58.8,"Call":"active"}
{"gene":"HMGN5","technical replicate":"2","viability, normalised (%)":78.7,"Call":"active"}
{"gene":"HMGN5","technical replicate":"3","viability, normalised (%)":80.4,"Call":"inactive"}
